In US20100210564A1, “DRUG OR FOOD CONTAINING A PEPTIDE” (Kyoto University, priority 2009, published 2010):
At least one structure is not confirmed: it was looked up by name or label, or the drawing left a doubt.

System: mice
Assay: Elevated plus-maze test, YL in combination with antagonists for various receptors
Format: in vivo, mouse
Details: in words
Source text: The elevated plus-maze (EPM) consisted of two open arms (25×5 cm) and two closed arms (25×5×15 cm), which were joined to a central platform 50 cm high above the floor (see FIG. 1). Because the closed arms were surrounded by fences, a mouse could safely walk in the closed arms irrespective of their elevated position. On the other hand, because the open arms were not surrounded by fences, a mouse walking along the open arms would feel anxious that it might fall down from the elevated position. Therefore, the more time the mouse spent in the open arms, or the greater the number of entries to the open arms, the less anxious the mouse was feeling; thus, the anxiolytic activity was determined based on these indices.
A mouse was placed on a portion of the central platform facing one of the open arms, and the test was started. During a test time of 5 minutes, the cumulative time spent in the open arms (abbr.: time in open arms), the number of visits to the open arms (abbr.: visit to open arms), and the total number of visits to any of the arms (abbr.: total visits) were recorded. The percentage of the time spent in the open arms and the percentage of the number of visits to the open arms were calculated as indices of anxiety.

SMILES: CN1CCc2cc3c(cc2[C@H]1[C@@H]1OC(=O)c2c1ccc1c2OCO1)OCO3 [bicuculline]
- effect of the antagonist/inhibitor on the anxiolytic effects of the peptides of the invention: blocked
